Reference: patent US8697839B2, “GQ protein competitive inhibitory polypeptides, preparation methods and uses thereof” (Third Military Medical University, priority 2008, dated 2014)

Legend:
[1] = test system: myocardial hypertrophy in mice induced by norepinephrine; test: myocardial hypertrophy in mice induced by norepinephrine; assay type: in vivo; conditions: x ± s
Method: Fifty of the mice used in the experiment (purchased from Center for Experimental Animals, Third Military Medical University) was assigned into five groups with 10 mice per group. The mice in the control group were administrated with 0.1% ascorbic acid-3 mg % potassium sodium tartrate-physiological saline, The mice in the model group were administrated with 0.1% ascorbic acid-6 mg % norepinephrine bitartrate-physiological saline (equivalent to 1.5 mg/kg NE); The mice in three dosing groups were administrated with the pentadecapeptide, the heptacosapeptide, and the pantapentacontapeptide at 30 μg/kg respectively, while administration of 0.1% ascorbic acid—6 mg % norepinephrine bitartrate—physiological saline. The administration was performed consecutively by intraperitoneal injection (ip), twice a day (bid), for 15 days. The dosing volumes for each group were 50 ml/kg. Then, the animals were sacrificed by cervical dislocation. The heart was removed by thoracotomy, washed with the chilled physiological saline to get rid of blood stain, blotted with filter paper, weighed on a scale. The atriums and the right ventricle were carefully removed (with the interventricular septum left), and the left ventricle was weighed.

[2] = test system: myocardial hypertrophy in rats induced by norepinephrine; test: myocardial hypertrophy in rats induced by norepinephrine; assay type: in vivo, Wistar rats; conditions: polypeptide 15 μg/kg ip bid 20 days with norepinephrine; n = 6, x ± s
Method: Thirty of Wistar rats were selected and assigned into five groups with 6 rats per group. The rats in the control group were administrated with 0.1% ascorbic acid-3 mg % potassium sodium tartrate-physiological saline; the rats in the model group were administrated with 0.1% ascorbic acid-6 mg % norepinephrine bitartrate-physiological saline; the rats in the three dosing groups were administrated with the pentadecapeptide, the heptacosapeptide, and the pantapentacontapeptide at 15 μg/kg respectively, while administration of norepinephrine. The dosing volume for each group was 33 ml/kg, and the administration was performed consecutively by ip, bid, for 20 days. At that time, the heart and left ventricle were weighed.

[3] = test system: rats with spontaneous hypertension (SHR); test: myocardial remodeling and blood pressure in rats with spontaneous hypertension (SHR); assay type: in vivo, rat; conditions: losartan 6 mg/kg intragastric qd, eight weeks, x ± s, n = 6
Method: 1. Thirty 13-week-old rats with spontaneous hypertension (SHR, purchased from Beijing Vital River Laboratory Animal Technology Co. Ltd., Beijing) were selected and randomly assigned into five groups with 6 rats per group:
SHR model group (Vehicle): 0.9% physiological saline, intraperitoneal injection at a dosage of 5 ml/kg, bid.
Positive control group (losartan): potassium losartan at a dosage of 6 mg/kg, intragastric administration, qd.
The pentadecapeptide group: administration of the pentadecapeptide at a dosage of 30 μg/kg by intraperitoneal injection, bid.
The heptacosapeptide group: administration of the heptacosapeptide at a dosage of 30 μg/kg by intraperitoneal injection, bid.
The pantapentacontapeptide group: administration of the pantapentacontapeptide at a dosage of 30 μg/kg by intraperitoneal injection, bid.
Six of INKY (Wistar-Kyoto) rats (purchased from Center for Experimental Animals, Third Military Medical University) were additionally selected as the normal control.
2. Intervention with the drug was performed consecutively for eight weeks (from Week 14 to Week 21). The body weights of all the tested rats were obtained once every two weeks, and the administration dosage was adjustedbased on body weights.

Compound: NC[C@H](O)c1ccc(O)c(O)c1 [NE, norepinephrine, reference compound]
- BW (body weight) ([1]; NE model group: equivalent to 1.5 mg/kg NE ip bid 15 days, alone): 23.2 ± 1.69 g

Compound: Pentadecapeptide: SEQ ID NO: 9, obtained by deleting amino acid residues 1 to 40 at the N-terminal of SEQ ID NO: 1 (KDTILQLNLKEYNLV; listed as Homo sapiens)
- BW (body weight) ([1]; polypeptide 30 μg/kg ip bid 15 days with NE): 23.6 ± 2.51 g
- BW (body weight) [2]: 188 ± 12 g

Compound: CCCCc1nc(Cl)c(CO)n1Cc1ccc(-c2ccccc2-c2nn[nH]n2)cc1 [Losartan, potassium losartan]
- BW [3]: 288 ± 9 g
